Reference: the supplement of paper PMC10849652
The list shows a part of the results.

Protein sequences, listed by entry. Tags and fused reporters are not part of them. Lines headed by an entry give the natural chain unless they say otherwise; changes in a name come on top.
UniProt Q9H9S5: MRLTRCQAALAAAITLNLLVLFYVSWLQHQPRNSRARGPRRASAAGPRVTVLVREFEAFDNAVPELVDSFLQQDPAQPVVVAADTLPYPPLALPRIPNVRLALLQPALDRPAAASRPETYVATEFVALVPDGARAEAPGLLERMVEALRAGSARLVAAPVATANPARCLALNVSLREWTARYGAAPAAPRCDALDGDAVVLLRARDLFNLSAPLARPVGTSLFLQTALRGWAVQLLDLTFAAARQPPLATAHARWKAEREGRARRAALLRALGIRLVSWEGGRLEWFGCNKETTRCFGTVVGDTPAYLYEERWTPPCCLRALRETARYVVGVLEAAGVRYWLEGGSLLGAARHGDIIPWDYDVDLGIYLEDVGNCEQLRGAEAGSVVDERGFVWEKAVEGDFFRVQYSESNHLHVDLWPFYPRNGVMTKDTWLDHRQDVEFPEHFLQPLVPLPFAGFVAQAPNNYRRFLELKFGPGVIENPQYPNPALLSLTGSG
UniProt Q9Y3I1: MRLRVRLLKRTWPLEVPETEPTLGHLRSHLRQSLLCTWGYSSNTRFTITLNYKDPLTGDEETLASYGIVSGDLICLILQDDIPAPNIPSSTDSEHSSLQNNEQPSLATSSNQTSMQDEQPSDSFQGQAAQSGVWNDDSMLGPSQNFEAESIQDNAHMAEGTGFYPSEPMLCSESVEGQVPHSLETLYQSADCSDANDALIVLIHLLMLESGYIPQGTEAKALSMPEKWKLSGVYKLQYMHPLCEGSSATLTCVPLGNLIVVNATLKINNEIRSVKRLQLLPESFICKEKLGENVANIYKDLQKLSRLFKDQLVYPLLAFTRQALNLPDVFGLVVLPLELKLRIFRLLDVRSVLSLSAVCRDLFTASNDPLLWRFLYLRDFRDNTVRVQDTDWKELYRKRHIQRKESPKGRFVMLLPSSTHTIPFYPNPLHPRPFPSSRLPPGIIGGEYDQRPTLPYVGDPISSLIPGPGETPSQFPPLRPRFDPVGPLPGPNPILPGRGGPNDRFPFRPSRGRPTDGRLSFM
UniProt O95363: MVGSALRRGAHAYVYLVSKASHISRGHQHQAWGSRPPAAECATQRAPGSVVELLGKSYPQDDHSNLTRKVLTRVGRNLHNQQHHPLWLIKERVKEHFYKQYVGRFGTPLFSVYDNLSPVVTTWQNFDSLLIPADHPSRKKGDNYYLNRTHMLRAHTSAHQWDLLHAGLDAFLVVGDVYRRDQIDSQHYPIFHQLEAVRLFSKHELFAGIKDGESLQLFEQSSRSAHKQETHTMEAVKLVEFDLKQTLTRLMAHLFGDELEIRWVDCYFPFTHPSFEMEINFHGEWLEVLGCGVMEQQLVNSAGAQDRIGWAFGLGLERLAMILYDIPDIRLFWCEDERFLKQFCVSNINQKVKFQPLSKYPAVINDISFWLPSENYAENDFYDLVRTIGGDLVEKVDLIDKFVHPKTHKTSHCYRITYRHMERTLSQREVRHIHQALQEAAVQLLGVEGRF
UniProt Q8TDW7: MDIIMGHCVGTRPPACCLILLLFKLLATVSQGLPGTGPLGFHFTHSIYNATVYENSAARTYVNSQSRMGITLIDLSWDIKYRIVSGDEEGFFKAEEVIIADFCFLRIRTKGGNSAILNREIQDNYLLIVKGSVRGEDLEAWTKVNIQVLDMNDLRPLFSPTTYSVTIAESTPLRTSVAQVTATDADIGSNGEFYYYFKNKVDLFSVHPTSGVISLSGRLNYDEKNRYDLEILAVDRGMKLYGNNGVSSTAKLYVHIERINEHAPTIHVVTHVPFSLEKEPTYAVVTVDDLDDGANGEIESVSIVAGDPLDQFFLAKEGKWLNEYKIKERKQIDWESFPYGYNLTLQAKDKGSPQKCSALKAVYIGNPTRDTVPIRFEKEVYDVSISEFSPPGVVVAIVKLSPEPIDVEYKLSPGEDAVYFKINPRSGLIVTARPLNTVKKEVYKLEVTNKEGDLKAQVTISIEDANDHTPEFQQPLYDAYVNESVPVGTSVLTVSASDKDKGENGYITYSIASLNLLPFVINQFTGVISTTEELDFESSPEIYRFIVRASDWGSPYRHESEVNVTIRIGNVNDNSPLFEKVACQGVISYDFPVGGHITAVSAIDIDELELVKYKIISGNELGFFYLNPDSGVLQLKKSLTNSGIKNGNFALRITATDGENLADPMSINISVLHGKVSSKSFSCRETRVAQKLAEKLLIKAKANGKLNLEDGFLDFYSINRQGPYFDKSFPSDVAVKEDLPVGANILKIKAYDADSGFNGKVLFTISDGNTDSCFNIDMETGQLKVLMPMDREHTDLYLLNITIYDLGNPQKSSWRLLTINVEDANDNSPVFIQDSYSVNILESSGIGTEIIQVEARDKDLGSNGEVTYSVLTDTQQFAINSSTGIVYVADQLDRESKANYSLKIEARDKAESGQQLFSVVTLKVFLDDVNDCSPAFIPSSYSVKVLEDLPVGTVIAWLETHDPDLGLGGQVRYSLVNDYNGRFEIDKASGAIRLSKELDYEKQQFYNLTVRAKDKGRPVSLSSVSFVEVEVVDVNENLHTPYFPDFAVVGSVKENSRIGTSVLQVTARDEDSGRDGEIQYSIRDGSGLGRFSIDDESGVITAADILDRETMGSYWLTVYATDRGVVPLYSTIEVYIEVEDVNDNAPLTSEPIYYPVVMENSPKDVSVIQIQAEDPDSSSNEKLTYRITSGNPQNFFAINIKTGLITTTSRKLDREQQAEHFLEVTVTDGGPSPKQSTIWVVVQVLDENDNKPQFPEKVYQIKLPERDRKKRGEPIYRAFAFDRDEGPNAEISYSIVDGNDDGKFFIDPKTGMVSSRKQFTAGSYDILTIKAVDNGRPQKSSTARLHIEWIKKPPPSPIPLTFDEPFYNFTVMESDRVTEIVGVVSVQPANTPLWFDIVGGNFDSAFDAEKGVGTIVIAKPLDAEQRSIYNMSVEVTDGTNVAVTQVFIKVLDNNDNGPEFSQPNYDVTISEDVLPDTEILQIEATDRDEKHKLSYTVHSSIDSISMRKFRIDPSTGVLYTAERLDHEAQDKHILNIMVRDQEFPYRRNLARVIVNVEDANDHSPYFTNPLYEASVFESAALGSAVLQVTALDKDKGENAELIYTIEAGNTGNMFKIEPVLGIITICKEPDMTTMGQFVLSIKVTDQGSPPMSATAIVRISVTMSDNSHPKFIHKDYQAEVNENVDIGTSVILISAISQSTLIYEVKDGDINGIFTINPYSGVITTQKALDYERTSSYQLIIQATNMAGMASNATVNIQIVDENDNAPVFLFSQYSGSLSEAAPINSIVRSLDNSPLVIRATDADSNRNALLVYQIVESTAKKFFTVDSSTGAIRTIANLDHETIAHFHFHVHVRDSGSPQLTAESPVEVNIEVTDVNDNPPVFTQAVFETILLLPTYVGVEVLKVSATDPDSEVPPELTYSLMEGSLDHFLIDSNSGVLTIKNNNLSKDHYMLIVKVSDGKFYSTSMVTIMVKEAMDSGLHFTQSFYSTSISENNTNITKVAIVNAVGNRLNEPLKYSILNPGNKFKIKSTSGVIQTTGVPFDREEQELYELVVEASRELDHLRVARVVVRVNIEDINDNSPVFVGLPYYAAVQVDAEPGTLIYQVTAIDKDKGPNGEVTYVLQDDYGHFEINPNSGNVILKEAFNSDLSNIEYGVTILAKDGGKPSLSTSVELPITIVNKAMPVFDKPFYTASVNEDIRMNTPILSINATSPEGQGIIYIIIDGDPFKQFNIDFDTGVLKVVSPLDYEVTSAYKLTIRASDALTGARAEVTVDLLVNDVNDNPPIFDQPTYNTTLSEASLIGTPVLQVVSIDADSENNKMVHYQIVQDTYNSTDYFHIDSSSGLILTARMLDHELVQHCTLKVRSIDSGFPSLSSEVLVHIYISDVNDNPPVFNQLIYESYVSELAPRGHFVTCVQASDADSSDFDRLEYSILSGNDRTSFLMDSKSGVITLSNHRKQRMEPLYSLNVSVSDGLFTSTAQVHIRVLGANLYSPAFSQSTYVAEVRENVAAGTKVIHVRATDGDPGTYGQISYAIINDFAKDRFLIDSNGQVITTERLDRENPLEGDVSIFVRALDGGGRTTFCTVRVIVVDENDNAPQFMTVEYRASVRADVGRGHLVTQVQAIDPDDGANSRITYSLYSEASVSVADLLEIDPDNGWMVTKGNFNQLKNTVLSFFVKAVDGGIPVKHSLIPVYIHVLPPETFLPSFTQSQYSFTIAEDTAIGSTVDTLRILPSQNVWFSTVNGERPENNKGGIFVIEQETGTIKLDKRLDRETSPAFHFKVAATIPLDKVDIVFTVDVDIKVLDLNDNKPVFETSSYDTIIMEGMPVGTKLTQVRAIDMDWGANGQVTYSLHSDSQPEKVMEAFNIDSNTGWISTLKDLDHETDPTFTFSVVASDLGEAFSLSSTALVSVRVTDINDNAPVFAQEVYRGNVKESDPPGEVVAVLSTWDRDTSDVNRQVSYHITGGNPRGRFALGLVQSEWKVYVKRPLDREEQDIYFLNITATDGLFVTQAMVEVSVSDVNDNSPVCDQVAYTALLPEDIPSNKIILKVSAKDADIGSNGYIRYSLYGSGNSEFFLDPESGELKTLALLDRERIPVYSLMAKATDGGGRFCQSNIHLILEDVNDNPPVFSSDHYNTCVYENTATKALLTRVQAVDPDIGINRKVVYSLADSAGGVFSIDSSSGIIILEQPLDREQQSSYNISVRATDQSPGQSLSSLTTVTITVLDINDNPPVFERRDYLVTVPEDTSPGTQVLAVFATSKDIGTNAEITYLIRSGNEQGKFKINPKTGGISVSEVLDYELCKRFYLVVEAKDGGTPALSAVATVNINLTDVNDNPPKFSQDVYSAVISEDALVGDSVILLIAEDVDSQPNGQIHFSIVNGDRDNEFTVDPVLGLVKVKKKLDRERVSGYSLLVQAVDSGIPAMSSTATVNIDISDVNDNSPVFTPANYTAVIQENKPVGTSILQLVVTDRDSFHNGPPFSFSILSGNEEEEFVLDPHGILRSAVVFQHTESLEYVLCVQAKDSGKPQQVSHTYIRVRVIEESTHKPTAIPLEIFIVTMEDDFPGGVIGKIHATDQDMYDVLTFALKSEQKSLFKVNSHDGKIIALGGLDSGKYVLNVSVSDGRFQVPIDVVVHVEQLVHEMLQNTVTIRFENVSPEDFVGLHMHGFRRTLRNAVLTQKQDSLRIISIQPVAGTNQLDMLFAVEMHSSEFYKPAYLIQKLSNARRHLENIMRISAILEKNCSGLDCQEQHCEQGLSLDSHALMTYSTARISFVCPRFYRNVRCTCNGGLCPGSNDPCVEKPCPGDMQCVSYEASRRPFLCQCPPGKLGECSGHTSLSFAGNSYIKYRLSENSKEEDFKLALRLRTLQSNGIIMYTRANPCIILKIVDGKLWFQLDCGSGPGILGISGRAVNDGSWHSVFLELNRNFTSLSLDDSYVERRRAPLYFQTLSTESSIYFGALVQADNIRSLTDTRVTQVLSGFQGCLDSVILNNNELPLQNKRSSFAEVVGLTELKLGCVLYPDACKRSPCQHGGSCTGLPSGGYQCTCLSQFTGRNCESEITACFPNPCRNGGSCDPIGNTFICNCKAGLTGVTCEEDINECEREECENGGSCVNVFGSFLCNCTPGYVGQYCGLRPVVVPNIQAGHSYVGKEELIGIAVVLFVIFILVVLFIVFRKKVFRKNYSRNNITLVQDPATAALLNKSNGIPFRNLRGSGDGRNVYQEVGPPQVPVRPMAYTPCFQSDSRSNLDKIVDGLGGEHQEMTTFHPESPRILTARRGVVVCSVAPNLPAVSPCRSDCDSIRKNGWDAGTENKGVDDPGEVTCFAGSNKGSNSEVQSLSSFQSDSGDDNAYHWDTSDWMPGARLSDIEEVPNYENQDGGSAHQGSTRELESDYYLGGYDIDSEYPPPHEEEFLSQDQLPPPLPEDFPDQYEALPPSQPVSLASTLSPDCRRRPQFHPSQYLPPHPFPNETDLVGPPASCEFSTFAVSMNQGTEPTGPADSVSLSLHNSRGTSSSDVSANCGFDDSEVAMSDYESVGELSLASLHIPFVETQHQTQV
UniProt Q96ND0: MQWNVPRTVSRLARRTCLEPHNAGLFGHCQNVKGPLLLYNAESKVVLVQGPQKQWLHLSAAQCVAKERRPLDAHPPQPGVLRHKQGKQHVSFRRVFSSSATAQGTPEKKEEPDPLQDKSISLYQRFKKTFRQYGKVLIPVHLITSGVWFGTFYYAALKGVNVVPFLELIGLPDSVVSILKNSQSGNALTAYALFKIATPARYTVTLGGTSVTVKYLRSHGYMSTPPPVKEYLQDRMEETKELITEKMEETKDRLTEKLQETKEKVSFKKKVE
UniProt Q9Y3D6: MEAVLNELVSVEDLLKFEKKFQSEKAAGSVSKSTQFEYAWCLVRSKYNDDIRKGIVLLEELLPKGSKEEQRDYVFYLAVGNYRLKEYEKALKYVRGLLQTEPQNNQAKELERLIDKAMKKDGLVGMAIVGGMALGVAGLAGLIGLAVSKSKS

Each target was assayed with CNC(=O)c1ccc(Nc2ncc(C(F)(F)F)c(NCc3nccnc3N(C)S(C)(=O)=O)n2)cc1 [defactinib] (assay: log2 fold change, soluble protein after heating vs DMSO (PISA); higher = thermal stabilisation; K562 cells, 10 uM, 30 min; active = over 0.2 and 3.5 SD of the protein, either way, in both replicates (recomputed)).
Summary of the method: (§1)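 K562 cells at 2×10^6 cells/mL were given 10 μM compound for 30 min. Aliquots then went through 3 min of heating across 48°C-58°C, were pooled, and were extracted in PBS with 0.5% NP-40 at 4°C, and the supernatant after 21,000xg for 90 min was quantified by TMTpro 16plex LC-MS/MS with channel sums equalised. Thermal stability relative to control samples, from duplicates, is given as log2 fold change.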

**Q.** FN3KRP (UniProt Q9HA64) was tested. Which log2 fold change did it give?
**A.** inactive: -0.021

**Q.** For FCGR2A (UniProt P12318), which log2 fold change is on record?
**A.** inactive: -0.186

**Q.** For FKRP (UniProt Q9H9S5), which log2 fold change is on record?
**A.** inactive: -0.021

**Q.** For FDXR isoform 7 (UniProt P22570), which log2 fold change is on record?
**A.** inactive: -0.115

**Q.** FIP1L1 (UniProt Q6UN15) was tested. Which log2 fold change did it give?
**A.** inactive: -0.053

**Q.** Which log2 fold change does the source give for FAM234A (UniProt Q9H0X4) here?
**A.** inactive: 0.005

**Q.** Which log2 fold change does the source give for FLNA (UniProt P21333) here?
**A.** inactive: -0.042

**Q.** How did the log2 fold change turn out when FAM98A (UniProt Q8NCA5) was run?
**A.** inactive: 0.204

**Q.** How did the log2 fold change turn out when FLT4 (UniProt P35916) was run?
**A.** inactive: -0.025

**Q.** Which log2 fold change does the source give for FBXL12 (UniProt Q9NXK8) here?
**A.** inactive: -0.093

**Q.** With FKBPL (UniProt Q9UIM3) as the target, how does the log2 fold change read?
**A.** inactive: 0.021

**Q.** For FDX1 (UniProt P10109), which log2 fold change is on record?
**A.** inactive: 0.053

**Q.** With FAM91A1 (UniProt Q658Y4) as the target, how does the log2 fold change read?
**A.** inactive: 0

**Q.** How did the log2 fold change turn out when FBXO30 (UniProt Q8TB52) was run?
**A.** inactive: -0.019

**Q.** Which log2 fold change does the source give for FBXO7 (UniProt Q9Y3I1) here?
**A.** inactive: -0.025

**Q.** With FAM76B (UniProt Q5HYJ3) as the target, how does the log2 fold change read?
**A.** inactive: -0.058

**Q.** How did the log2 fold change turn out when FAM3A (UniProt P98173) was run?
**A.** inactive: -0.035

**Q.** How did the log2 fold change turn out when FANCB (UniProt Q8NB91) was run?
**A.** inactive: -0.008

**Q.** FECH isoform 2 (UniProt P22830) was tested. Which log2 fold change did it give?
**A.** inactive: 0.102

**Q.** Which log2 fold change does the source give for FHL3 (UniProt Q13643) here?
**A.** inactive: 0.016

**Q.** How did the log2 fold change turn out when FKBP9 (UniProt O95302) was run?
**A.** inactive: -0.016

**Q.** With FAM49B (UniProt Q9NUQ9) as the target, how does the log2 fold change read?
**A.** inactive: -0.029

**Q.** FASTKD2 (UniProt Q9NYY8) was tested. Which log2 fold change did it give?
**A.** inactive: -0.027

**Q.** How did the log2 fold change turn out when FGF13 isoform 3 (UniProt Q92913) was run?
**A.** inactive: -0.129

**Q.** How did the log2 fold change turn out when FERMT3 (UniProt Q86UX7) was run?
**A.** inactive: -0.069

**Q.** How did the log2 fold change turn out when FBXO6 (UniProt Q9NRD1) was run?
**A.** inactive: -0.038

**Q.** With FBL (UniProt P22087) as the target, how does the log2 fold change read?
**A.** inactive: 0.375

**Q.** For FNBP4 isoform 2 (UniProt Q8N3X1), which log2 fold change is on record?
**A.** inactive: -0.017

**Q.** FAR1 (UniProt Q8WVX9) was tested. Which log2 fold change did it give?
**A.** inactive: -0.024

**Q.** For FBH1 isoform 2 (UniProt Q8NFZ0), which log2 fold change is on record?
**A.** inactive: -0.088

**Q.** For FARS2 (UniProt O95363), which log2 fold change is on record?
**A.** inactive: -0.023

**Q.** With FN1 isoform 1 (UniProt P02751) as the target, how does the log2 fold change read?
**A.** inactive: -0.035

**Q.** FKBP4 (UniProt Q02790) was tested. Which log2 fold change did it give?
**A.** inactive: -0.055

**Q.** How did the log2 fold change turn out when FKBP5 (UniProt Q13451) was run?
**A.** inactive: -0.117

**Q.** Which log2 fold change does the source give for FAT3 isoform 1 (UniProt Q8TDW7) here?
**A.** inactive: -0.066

**Q.** FAM210A (UniProt Q96ND0) was tested. Which log2 fold change did it give?
**A.** inactive: 0.021

**Q.** FIS1 (UniProt Q9Y3D6) was tested. Which log2 fold change did it give?
**A.** inactive: -0.063

**Q.** Which log2 fold change does the source give for FBXW9 (UniProt Q5XUX1) here?
**A.** inactive: -0.073

Each target was assayed with CNCc1ccc(-c2[nH]c3cc(F)cc4c3c2CCNC4=O)cc1 [rucaparib] in the same assay as above.
Summary of the method: as §1

**Q.** With FN3KRP (UniProt Q9HA64) as the target, how does the log2 fold change read?
**A.** inactive: -0.03

**Q.** With FCGR2A (UniProt P12318) as the target, how does the log2 fold change read?
**A.** inactive: 0.109

**Q.** For FKRP (UniProt Q9H9S5), which log2 fold change is on record?
**A.** inactive: 0.123

**Q.** Which log2 fold change does the source give for FDXR isoform 7 (UniProt P22570) here?
**A.** inactive: -0.035

**Q.** How did the log2 fold change turn out when FIP1L1 (UniProt Q6UN15) was run?
**A.** inactive: 0.008

**Q.** With FAM234A (UniProt Q9H0X4) as the target, how does the log2 fold change read?
**A.** inactive: 0.054

**Q.** Which log2 fold change does the source give for FLNA (UniProt P21333) here?
**A.** inactive: 0.1

**Q.** How did the log2 fold change turn out when FAM98A (UniProt Q8NCA5) was run?
**A.** inactive: 0.245

**Q.** With FLT4 (UniProt P35916) as the target, how does the log2 fold change read?
**A.** inactive: 0

**Q.** How did the log2 fold change turn out when FBXL12 (UniProt Q9NXK8) was run?
**A.** inactive: 0.122

**Q.** Which log2 fold change does the source give for FKBPL (UniProt Q9UIM3) here?
**A.** inactive: 0.012

**Q.** Which log2 fold change does the source give for FDX1 (UniProt P10109) here?
**A.** inactive: 0.074

**Q.** Which log2 fold change does the source give for FAM219A (UniProt Q8IW50) here?
**A.** inactive: -0.009

**Q.** FAM91A1 (UniProt Q658Y4) was tested. Which log2 fold change did it give?
**A.** inactive: -0.015

**Q.** For FBXO30 (UniProt Q8TB52), which log2 fold change is on record?
**A.** inactive: -0.008

**Q.** How did the log2 fold change turn out when FBXO7 (UniProt Q9Y3I1) was run?
**A.** inactive: 0.068

**Q.** Which log2 fold change does the source give for FAM76B (UniProt Q5HYJ3) here?
**A.** inactive: -0.136

**Q.** For FAM3A (UniProt P98173), which log2 fold change is on record?
**A.** inactive: 0.017

**Q.** How did the log2 fold change turn out when FANCB (UniProt Q8NB91) was run?
**A.** inactive: -0.089

**Q.** FECH isoform 2 (UniProt P22830) was tested. Which log2 fold change did it give?
**A.** inactive: 0.043

**Q.** Which log2 fold change does the source give for FHL3 (UniProt Q13643) here?
**A.** inactive: 0

**Q.** With FKBP9 (UniProt O95302) as the target, how does the log2 fold change read?
**A.** inactive: 0.002

**Q.** How did the log2 fold change turn out when FAM49B (UniProt Q9NUQ9) was run?
**A.** inactive: -0.033

**Q.** FASTKD2 (UniProt Q9NYY8) was tested. Which log2 fold change did it give?
**A.** inactive: -0.031

**Q.** With FGF13 isoform 3 (UniProt Q92913) as the target, how does the log2 fold change read?
**A.** inactive: 0.036

**Q.** Which log2 fold change does the source give for FERMT3 (UniProt Q86UX7) here?
**A.** inactive: -0.003

**Q.** For FBXO6 (UniProt Q9NRD1), which log2 fold change is on record?
**A.** inactive: -0.064

**Q.** With FBL (UniProt P22087) as the target, how does the log2 fold change read?
**A.** inactive: 0.511

**Q.** How did the log2 fold change turn out when FNBP4 isoform 2 (UniProt Q8N3X1) was run?
**A.** inactive: -0.006

**Q.** FAR1 (UniProt Q8WVX9) was tested. Which log2 fold change did it give?
**A.** inactive: -0.07

**Q.** Which log2 fold change does the source give for FBH1 isoform 2 (UniProt Q8NFZ0) here?
**A.** inactive: -0.231

**Q.** With FARS2 (UniProt O95363) as the target, how does the log2 fold change read?
**A.** inactive: -0.026

**Q.** With FN1 isoform 1 (UniProt P02751) as the target, how does the log2 fold change read?
**A.** inactive: -0.077

**Q.** How did the log2 fold change turn out when FKBP4 (UniProt Q02790) was run?
**A.** inactive: 0.016

**Q.** FKBP5 (UniProt Q13451) was tested. Which log2 fold change did it give?
**A.** inactive: 0.169

**Q.** Which log2 fold change does the source give for FAT3 isoform 1 (UniProt Q8TDW7) here?
**A.** inactive: -0.106

**Q.** FAM210A (UniProt Q96ND0) was tested. Which log2 fold change did it give?
**A.** inactive: 0.005

**Q.** With FIS1 (UniProt Q9Y3D6) as the target, how does the log2 fold change read?
**A.** inactive: 0.004

**Q.** How did the log2 fold change turn out when FBXW9 (UniProt Q5XUX1) was run?
**A.** inactive: 0.07
